In paper PMC11586526:

What was measured:
Assay in all cases: two-hybrid; PJ69-4A diploids from MATa cells with activation domain-Myo2 (wild type or point mutants) and MATalpha cells with binding domain-Vac17 (wild type or point mutants); growth for 3-4 days on YM+Glu Leu-Trp-Ade-His- medium with 0, 3, 6 or 10 mM 3-aminotriazole
[1] = target: T1, vac17-R135E,R142E (binding-domain fusion, yeast two-hybrid) (S. cerevisiae) (UniProt P25591)
T1 sequence: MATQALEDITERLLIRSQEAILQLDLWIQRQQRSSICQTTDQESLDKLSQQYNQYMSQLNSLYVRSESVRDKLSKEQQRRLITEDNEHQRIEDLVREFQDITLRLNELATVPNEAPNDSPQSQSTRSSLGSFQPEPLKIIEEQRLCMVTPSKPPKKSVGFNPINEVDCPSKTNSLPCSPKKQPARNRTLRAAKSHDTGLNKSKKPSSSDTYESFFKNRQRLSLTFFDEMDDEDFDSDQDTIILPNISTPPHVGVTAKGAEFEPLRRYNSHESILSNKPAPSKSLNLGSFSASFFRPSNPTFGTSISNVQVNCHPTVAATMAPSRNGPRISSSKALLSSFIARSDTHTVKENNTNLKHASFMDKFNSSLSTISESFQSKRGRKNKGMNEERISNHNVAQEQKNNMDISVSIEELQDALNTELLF

[2] = target: T2, vac17-R142E (binding-domain fusion, yeast two-hybrid) (S. cerevisiae) (UniProt P25591)
T2 sequence: T1 sequence with E135R

[3] = target: T3, wild-type Vac17 (binding-domain fusion, yeast two-hybrid) (S. cerevisiae) (UniProt P25591)
T3 sequence: T1 sequence with E135R, E142R

binding [1]	binding [2]	binding [3]	Substance
binds	binds		myo2-E1293K cargo-binding domain (activation-domain fusion, yeast two-hybrid) (S. cerevisiae) (domain or fragment)
		binds	myo2-D1296N cargo-binding domain (activation-domain fusion, yeast two-hybrid) (S. cerevisiae) (domain or fragment)
no binding	no binding		myo2-D1297N cargo-binding domain (activation-domain fusion, yeast two-hybrid) (S. cerevisiae) (domain or fragment)
no binding	no binding		myo2-N1304D cargo-binding domain (activation-domain fusion, yeast two-hybrid) (S. cerevisiae) (domain or fragment)

Changes are numbered by the printed parent chain. Results are given in words; binding and its absence hold for the method and conditions named. Binding can be weak; no strength is given. Sequences can lack the tags named with a protein.
